Measured values published in PMC5791181.
Results are given in words; binding and its absence hold for the method and conditions named. In cells and extracts the contact can be indirect. Some results given as binding are weak or reduced against the parent protein; the word gives no strength.

Amino acid sequences for entries named in this document (tags omitted).
UniProt Q8R4B8: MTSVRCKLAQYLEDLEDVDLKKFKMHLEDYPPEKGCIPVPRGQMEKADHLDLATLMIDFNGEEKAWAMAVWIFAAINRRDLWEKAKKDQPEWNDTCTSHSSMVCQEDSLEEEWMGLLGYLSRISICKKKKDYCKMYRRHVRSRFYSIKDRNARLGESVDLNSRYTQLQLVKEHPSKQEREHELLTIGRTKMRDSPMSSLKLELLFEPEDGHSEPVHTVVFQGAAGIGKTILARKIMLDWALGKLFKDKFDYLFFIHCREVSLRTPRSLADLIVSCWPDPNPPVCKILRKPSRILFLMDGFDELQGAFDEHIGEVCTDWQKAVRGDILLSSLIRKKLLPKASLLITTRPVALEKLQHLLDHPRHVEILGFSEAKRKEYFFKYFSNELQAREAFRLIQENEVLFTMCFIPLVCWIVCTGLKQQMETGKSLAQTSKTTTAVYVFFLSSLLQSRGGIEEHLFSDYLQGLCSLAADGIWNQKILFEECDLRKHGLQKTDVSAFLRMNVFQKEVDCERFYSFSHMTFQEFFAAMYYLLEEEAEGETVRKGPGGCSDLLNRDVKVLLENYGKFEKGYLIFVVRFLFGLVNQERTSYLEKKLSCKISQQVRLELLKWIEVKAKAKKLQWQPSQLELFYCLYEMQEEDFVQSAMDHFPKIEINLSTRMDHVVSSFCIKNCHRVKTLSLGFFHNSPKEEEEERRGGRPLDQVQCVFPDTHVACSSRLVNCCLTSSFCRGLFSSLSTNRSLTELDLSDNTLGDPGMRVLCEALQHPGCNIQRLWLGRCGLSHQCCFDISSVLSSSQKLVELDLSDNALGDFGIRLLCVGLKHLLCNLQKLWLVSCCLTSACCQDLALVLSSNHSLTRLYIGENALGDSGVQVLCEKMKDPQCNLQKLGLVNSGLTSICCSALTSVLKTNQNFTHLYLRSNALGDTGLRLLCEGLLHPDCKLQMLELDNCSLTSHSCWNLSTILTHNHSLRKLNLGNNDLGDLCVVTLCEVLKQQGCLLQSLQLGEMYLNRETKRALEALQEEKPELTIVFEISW
UniProt P70658: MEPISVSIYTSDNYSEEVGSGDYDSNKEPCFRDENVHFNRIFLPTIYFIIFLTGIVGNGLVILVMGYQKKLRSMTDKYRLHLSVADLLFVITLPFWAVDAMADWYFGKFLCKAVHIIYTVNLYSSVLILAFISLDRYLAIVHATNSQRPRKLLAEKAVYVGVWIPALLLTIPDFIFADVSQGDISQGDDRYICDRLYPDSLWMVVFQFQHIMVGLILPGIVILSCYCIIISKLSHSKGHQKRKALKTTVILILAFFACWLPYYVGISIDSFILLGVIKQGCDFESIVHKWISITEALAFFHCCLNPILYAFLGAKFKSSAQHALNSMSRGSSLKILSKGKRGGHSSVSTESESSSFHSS

T1: Thioredoxin-interacting protein (TXNIP) (mouse (endogenous in spinal cord)) (UniProt Q8BG60)
T1 sequence: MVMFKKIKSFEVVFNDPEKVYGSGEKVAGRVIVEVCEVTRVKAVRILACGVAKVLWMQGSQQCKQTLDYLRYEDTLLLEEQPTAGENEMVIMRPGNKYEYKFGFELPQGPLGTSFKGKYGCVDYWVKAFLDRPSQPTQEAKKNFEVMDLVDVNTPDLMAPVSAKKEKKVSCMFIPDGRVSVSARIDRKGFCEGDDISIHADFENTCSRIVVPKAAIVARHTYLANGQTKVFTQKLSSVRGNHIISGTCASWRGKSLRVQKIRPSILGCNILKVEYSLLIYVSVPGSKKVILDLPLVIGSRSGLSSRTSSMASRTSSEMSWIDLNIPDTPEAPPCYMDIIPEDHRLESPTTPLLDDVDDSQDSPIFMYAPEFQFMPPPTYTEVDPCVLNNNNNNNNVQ


Tests used:
[1] = target: T1, Thioredoxin-interacting protein (TXNIP) (mouse (endogenous in spinal cord)); assay: co-IP; spinal cord of sham and pSNL mice; Catch and Release Reversible Immunoprecipitation System kit (Millipore); rabbit/mouse IgG as control; immunoblot
[2] = target: NOD-like receptor protein 3 (NLRP3) (mouse (endogenous in spinal cord)) (UniProt Q8R4B8); assay: as above

binding [1] | binding [2] | Molecule
binds | – | NOD-like receptor protein 3 (NLRP3) (from UniProt Q8R4B8 1-1033)
binds | – | Chemokine CXC receptor 4 (CXCR4) (from UniProt P70658 1-359)
– | binds | Thioredoxin-interacting protein (TXNIP) (protein, UniProt Q8BG60-1 1-397) MVMFKKIKSFEVVFNDPEKVYGSGEKVAGRVIVEVCEVTRVKAVRILACGVAKVLWMQGSQQCKQTLDYLRYEDTLLLEEQPTAGENEMVIMRPGNKYEYKFGFELPQGPLGTSFKGKYGCVDYWVKAFLDRPSQPTQEAKKNFEVMDLVDVNTPDLMAPVSAKKEKKVSCMFIPDGRVSVSARIDRKGFCEGDDISIHADFENTCSRIVVPKAAIVARHTYLANGQTKVFTQKLSSVRGNHIISGTCASWRGKSLRVQKIRPSILGCNILKVEYSLLIYVSVPGSKKVILDLPLVIGSRSGLSSRTSSMASRTSSEMSWIDLNIPDTPEAPPCYMDIIPEDHRLESPTTPLLDDVDDSQDSPIFMYAPEFQFMPPPTYTEVDPCVLNNNNNNNNVQ
